Results reported in PubChem BioAssay AID198 (DTP/NCI, 2004).
The list does not hold the whole screen: it covers a few groups of compounds. Other doses and runs of a compound may be missing. T/C: endpoint of the treated group in % of that of the vehicle group. For survival time, this PubChem deposit counts one and a half times the control or more as active, and values a quarter to a half above the control carry no call in these data; other NCI protocols may use other cut-offs. Some T/C values are marked as having no survivor count here; that says nothing about deaths at the dose. Schedule codes are those of the source, read here as Q, the interval in days (D) or hours (H), X, the number of doses. Some entries hold several experiments; their values stand side by side, smallest first.

System: B16 melanoma ip, C57BL/6 mice, median survival T/C
Experiment: NCI In Vivo Anticancer Drug Screen. Data for tumor model B16 Melanoma (intraperitoneal) in C57BL/6 mice
Details: T/C endpoint: median survival time, schedule: Q01DX009 (ip), vehicle: saline, higher T/C = longer survival
Experimental: The antitumor activity of compounds was measured in mice bearing transplantable tumors. Survival or tumor size were measured and the results are expressed as the measurement made in the treated group (T) divided by the measurement made in the vehicle treated control group (C). The tumor model used in this assay is B16 Melanoma (intraperitoneal) in C57BL/6 mice

SMILES: CN(CCCl)CCCl
- T/C (dose: 0.13 mg/kg/injection): 136 % of control [survivor count not shown]
- T/C (dose: 0.25 mg/kg/injection): 156 [survivor count not shown] and 168 % of control [survivor count not shown]
- T/C (dose: 0.5 mg/kg/injection): 173 [survivor count not shown] and 200 % of control [survivor count not shown]
- T/C (dose: 1.0 mg/kg/injection): 126 % of control [survivor count not shown]
